Laboratory results taken from PubChem BioAssay (NCATS).
Inconclusive results, whose numbers are uncertain, are shown with a selection of clear calls. A potency beside an inconclusive call is a rough fit, not a confirmed value. Active and inactive are the calls of the source. The call rests on the fitted dose curve; in most records, active means well fitted cell-killing curve with a large enough effect; inconclusive means small, poorly fitted or top-dose-only effect, or effect the other way; inactive means flat fitted curve, though single readings scatter.

Assay: Cell Viability - LYMP2-003 (AID 965);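 further: cells exposed to compounds for 24 h before reading; nearly all actives have a fitted effect of over 50% in size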;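 on activity change, negative = cytotoxicity: 0% = DMSO only and full effect = 92 µM tetraoctylammonium bromide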
Conditions: LYMP2-003 lymphoblastoid cell viability; series mostly up to 92.2 µM; activity change, negative = cytotoxicity: at the top concentration
Source text: NIH Chemical Genomics Center [NCGC]
NIH Molecular Libraries Screening Centers Network [MLSCN]
National Institutes of Environmental Health Sciences [NIEHS]
National Toxicology Program [NTP]
We have developed a 1536-well cell-based assay for quantitative high throughput screening (qHTS) against a number of cell lines to determine in vitro cytotoxicity of small molecules. This particular assay uses a human lymphoblastoid cell line (LYMP2-003) purchased from Coriell Institute for Medical Research.
NCGC Assay Protocol Summary:
The CellTiter-Glo luminescent cell viability assay (Promega) is a homogeneous method to measure the number of viable cells in culture. The end point readout of this assay is based on quantitation of intracellular ATP, an indicator of metabolic activity, using the luciferase reaction. Luciferase catalyzes the oxidation of beetle Luciferin to oxyluciferin and light in the presence of ATP. The luminescent signal is proportional to amount of ATP present.
Using the CellTiter-Glo luminescent cell viability assay, the amount of cellular ATP was measured in the lymphoblastoid cell line with complete culture medium following compound treatment for 24 hours. The assay was performed in opaque white Kalypsys 1536-well plates. In the screen, tetraoctylammonium bromide was used as positive control. Library compounds were measured for their ability to cause acute toxicity in the cell line, as reflected by a decrease in intracellular ATP levels, in a concentration-dependent manner. […] AC50 values were determined from concentration-response data modeled with the standard Hill equation.
qHTS protocol for CellTiter Glo lymphoblastoid cellular assay
[Step] [Parameter] [Value] [Description]
1. Reagent; 5 uL; 2500 lymphoblastoid cells/well
2. Time; 5 hr; 37 C incubation
4. Controls; 23 nL; Tetraoctylammonium bromide 6.4pM to 92 uM
5. Time; 24 hr; 37 C incubation
6. Reagent; 5 uL; CellTiter Glo reagent
7. Time; 30 min; Room Temperature
8. Detection; Luminescence; Viewlux plate reader
Keywords: cell viability, cytotoxicity, lymphoblastoid cell line, luminescence, NTPHTS, NTPHTS_NCGC, NIEHS, DSSTox, MLSMR, MLSCN, NIH Roadmap, qHTS, NCGC
Potency means the concentration at half of the fitted maximal effect.

Row | Structure (SMILES) | Potency | activity change, negative = cytotoxicity
1 | O=[N+]([O-])/C=C/c1ccccc1 | inconclusive: 79.4 µM [cytotoxic, partial curve, poor fit] | 
2 | CN(C)c1ccc(N)cc1 | active: 50.1 µM | 
3 | CN(C)c1ccc(N(C)C)cc1 | inconclusive: 50.1 µM [cytotoxic, partial curve, poor fit] | 
4 | Oc1ccc(Cl)cc1Sc1cc(Cl)ccc1O | inconclusive: 50.1 µM [cytotoxic, partial curve] | 
5 | CCCCCCCCOC(=O)c1ccccc1C(=O)OCCCCCCCC |  | inactive: 5.66%
6 | Oc1ccc(Cl)cc1Cc1cc(Cl)ccc1O | inconclusive: 39.8 µM [cytotoxic, partial curve] | 
7 | O=C1C(Cl)=C(Cl)C(=O)C(Cl)=C1Cl | active: 20 µM | 
8 | CC/C(=C(\c1ccccc1)c1ccc(OCCN(C)C)cc1)c1ccc(O)cc1 | inconclusive: 50.1 µM [cytotoxic, partial curve] | 
9 | CCc1cccc(CC)c1N(COC)C(=O)CCl | inconclusive: 79.4 µM [cytotoxic, partial curve, poor fit] | 
10 | N#CSCSC#N | active: 10 µM | 
11 | CC(C)(c1ccc(OCC2CO2)cc1)c1ccc(OCC2CO2)cc1 (stereo unspecified) | inconclusive: 39.8 µM [cytotoxic, partial curve] | 
12 | CC(C)(C)c1cc(O)ccc1O | inconclusive: 50.1 µM [cytotoxic, partial curve, poor fit] | 
13 | Oc1cc(Cl)c(Cl)c(Cl)c1 | inconclusive: 79.4 µM [cytotoxic, single point] | 
14 | CC(=O)Oc1ccccc1C(=O)Nc1ncc([N+](=O)[O-])s1 | inconclusive: 31.6 µM [cytotoxic, partial curve] | 
15 | CC(=O)[C@H]1CC[C@H]2[C@@H]3CCC4=CC(=O)CC[C@]4(C)[C@H]3CC[C@]12C | inconclusive: 25.1 µM [cytotoxic, partial curve, poor fit] | 
16 | O=C(O)c1cc(O)c(O)c(O)c1 | inconclusive: 79.4 µM [cytotoxic, single point] | 
17 | O=[N+]([O-])c1cc(C(F)(F)F)cc([N+](=O)[O-])c1Cl | inconclusive: 79.4 µM [cytotoxic, single point] | 
18 | O=S1OCC2C(CO1)C1(Cl)C(Cl)=C(Cl)C2(Cl)C1(Cl)Cl (stereo unspecified) | inconclusive: 50.1 µM [cytotoxic, partial curve] | 
19 | ClC1=C(Cl)C2(Cl)C3C(Cl)C(Cl)CC3C1(Cl)C2(Cl)Cl (stereo unspecified) | inconclusive: 50.1 µM [cytotoxic, partial curve] | 
20 | CCOc1cc(C=O)ccc1O |  | inactive: 16%
21 | ClC1=C(Cl)C2(Cl)C3C(Cl)C=CC3C1(Cl)C2(Cl)Cl (stereo unspecified) | active: 39.8 µM | 

From no. 12 as far as 13, as listed above:
Row | Structure (SMILES) | Potency | activity change, negative = cytotoxicity
12 | CC(C)(C)c1cc(O)ccc1O | inconclusive: 50.1 µM [cytotoxic, partial curve, poor fit] | 
13 | Oc1cc(Cl)c(Cl)c(Cl)c1 | inconclusive: 79.4 µM [cytotoxic, single point] | 
